Reference: PubChem BioAssay AID2685 (National Center for Advancing Translational Sciences (NCATS), 2010)
This is one part of the list. These are further read-outs of the screen, such as a control signal, another cell line or another target. No call is given for them. Most of these compounds were active or inconclusive in the main read-out, so they are no random draw. Potencies come from curve fits of mixed quality, noted in brackets.

Test: qHTS Assay for Lipid Storage Modulators in Drosophila S3 Cells;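 on cell number change: cells counted by Cell Tracker Red CMTPX staining in the red channel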
Conditions: BODIPY lipid droplet fluorescence, 18-24 h; for cell number change: measured here: cell count max response, cells fed with added oleic acid
Outline: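 Drosophila S3 cells got compounds at several concentrations plus oleic acid (400 uM solution). Laser-scanning cytometry with 488 nm excitation read lipid droplets at 500-530 nm and cells at 575-640 nm. Percent activity was relative to 20 uM Triacsin C.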

[1] = measured here: cell number channel AC50, cells fed with added oleic acid
[2] = measured here: lipid fluorescence (Fed channel) AC50, cells fed with added oleic acid

SMILES | cell number change | AC50 [1] | AC50 [2]
CC(=O)C1=C(C)OC2(O)c3ccccc3C(=O)C12O (stereo unspecified) | 20.4% | – | –
CC(OC(=O)c1ccc2c(=O)n3c(nc2c1)CCC3)C(=O)Nc1ccc(C(N)=O)cc1 (stereo unspecified) | -12.3% | – | –
CC(C)CCNC(=O)C(CC(C)C)N(Cc1ccc2c(c1)OCO2)C(=O)c1snc(C(N)=O)c1N (stereo unspecified) | -61.2% | 29.1 µM [falling, single point] | 29.1 µM [falling, single point]
O=C(O)CSc1cccc2cccnc12 | -0.664% | – | 5.17 µM [rising, partial curve, poor fit]
Nc1ccc(Br)c[n+]1Cc1cccc2cccnc12 | 16.7% | – | –
Cc1cccc(NC(=S)NNC(=O)c2ccccc2OC(F)F)c1 | 21.2% | 0.231 µM [rising, full curve, poor fit] | –
Cc1cc(NC(=O)c2ccc(C)s2)n(-c2nc3ccccc3[nH]2)n1 | 11.6% | 0.116 µM [rising, full curve, poor fit] | 0.184 µM [rising, full curve, poor fit]
O=C(CSc1ncnc2sccc12)Nc1ccc(S(=O)(=O)N2CCOCC2)cc1 | – | – | 16.4 µM [falling, partial curve]
COc1ccc(/C=C2\C(=O)N(c3c(Cl)cc(Cl)cc3Cl)N=C2NC(=O)c2cccc([N+](=O)[O-])c2)cc1 | 19.4% | 0.116 µM [rising, full curve, poor fit] | –
N#CCCSc1ccccc1NC(=O)c1ccc(S(=O)(=O)N2CCCC2)cc1 | 134% | – | –
Cc1cccc(S(=O)(=O)Nc2ccc(-c3nc4ccc(C)cc4s3)cc2)c1 | -43.8% | 29.1 µM [falling, single point] | 29.1 µM [falling, single point]
CSc1nnc(-c2ccc(O)cc2)n1C | 2.51% | – | –
CC(=O)N(CCCN(C)C)CCC(C)CCC=C(C)C (stereo unspecified) | 4.02% | – | –
CCCCNC(=O)[C@@](CC)(ONc1ccccc1C(F)(F)F)c1cccc2ccccc12 | -36.1% | 16.4 µM [falling, single point] | –
Cc1cc(OCc2cc(C(=O)N3CCCCCC3)no2)cc(C)c1Cl | 36.2% | 0.231 µM [rising, full curve, poor fit] | 29.1 µM [rising, single point]
COc1ccc(CCNC(=O)c2ccc(NS(=O)(=O)c3ccc4[nH]c(=O)[nH]c4c3)cc2)cc1OC | – | – | 0.411 µM [falling, single point]
CS(=O)(=O)N1CCN(c2ccc(NC(=O)c3cccnc3Cl)cc2)CC1 | 51.9% | 23.1 µM [rising, partial curve] | –
O=C(Cc1ccccc1F)Nc1ccc(S(=O)(=O)Nc2ncccn2)cc1 | – | – | 0.231 µM [falling, full curve]
Cc1ccc(NC(=O)CSc2nnc(-c3cccs3)n2Cc2ccco2)cc1 | -24.9% | – | 6.51 µM [rising, single point]
CN(Cc1cn(C)c2ccccc12)C(=S)Nc1cc(F)cc(F)c1 | – | – | 2.31 µM [rising, single point]
CCOn1c(-n2nc(C)cc2C)nc2ccccc2c1=O | 45.8% | 6.51 µM [rising, partial curve] | –

Shown with tabs: part of the list above
SMILES	cell number change	AC50 [1]	AC50 [2]
Cc1cccc(NC(=S)NNC(=O)c2ccccc2OC(F)F)c1	21.2%	0.231 µM [rising, full curve, poor fit]	–
N#CCCSc1ccccc1NC(=O)c1ccc(S(=O)(=O)N2CCCC2)cc1	134%	–	–

Remaining list, next part:

SMILES | cell number change | AC50 [1] | AC50 [2]
COc1ccccc1CNc1ncnc2cc(Cl)ccc12 | 17.3% | – | 0.00731 µM [falling, full curve, poor fit]
Cn1c(C(C#N)C(=O)c2ccco2)nc2ccccc21 (stereo unspecified) | -17.2% | – | 14.6 µM [rising, single point]
CCOP(=O)(OCC)C(NC(=O)Nc1ccc(C)cc1)C(N)=O (stereo unspecified) | 30% | – | 1.64 µM [rising, full curve, poor fit]
Cc1ccc(C(=O)C2=C(O)C(=O)N(CC3CCCO3)C2c2ccccc2F)o1 (stereo unspecified) | -0.451% | – | 29.1 µM [rising, single point]
Cc1cc(C)c(NC(=O)c2ccccc2C(=O)c2ccccc2)c(C)c1 | 43.1% | 0.651 µM [rising, full curve] | 5.17 µM [rising, full curve]
COc1ccc(C(=O)N=c2sc3ccccc3n2C)cc1OC | 79% | 29.1 µM [rising, single point] | –
COc1ccc(NC(=O)N2CCN(C(=O)C3CCCO3)CC2)cc1 (stereo unspecified) | 7.73% | – | –
C(=N\Nc1ccccn1)/c1ccc(N2CCOCC2)cc1 | 24.5% | – | 0.164 µM [rising, full curve, poor fit]
CCc1ccc(Nc2cc(C)nc3nc(C)nn23)cc1 | 22.2% | – | 6.51 µM [rising, partial curve]
Cc1ccc(C)c(N2CC(C(=O)Nc3nccs3)CC2=O)c1 (stereo unspecified) | 2.56% | – | 0.092 µM [rising, full curve, poor fit]
O=C(CNC(=O)c1cccs1)Nc1cccc(S(=O)(=O)N2CCOCC2)c1 | -83.7% | 29.1 µM [falling, single point] | 3.26 µM [falling, partial curve]
COc1ccc(N(CC(=O)NCC2CCCO2)S(=O)(=O)c2ccccc2)cc1OC (stereo unspecified) | 23.9% | – | –
CCc1noc(C)c1C(=O)OC(C)C(=O)c1c(C)[nH]c2ccccc12 (stereo unspecified) | -16.6% | – | –
COCCCNC(CC(=O)Nc1ccc(OC)cc1OC)C(=O)O (stereo unspecified) | 1.34% | – | –
COCc1nnc(SCC(=O)NC(C)c2ccccc2)n1-c1ccccc1 (stereo unspecified) | 33.2% | 3.26 µM [rising, full curve] | 18.4 µM [rising, single point]
CCOc1ccc(CCNC(=O)CSc2ncn[nH]2)cc1OCC | 22.2% | – | 16.4 µM [falling, single point]
CCCN1CCC(NC(=O)Nc2ccc([N+](=O)[O-])cc2)CC1 | 103% | 29.1 µM [rising, single point] | –
CCC1CCCCN1CC(=O)c1c(C)[nH]c2ccccc12 (stereo unspecified) | 56.9% | 5.8 µM [rising, partial curve] | –
O=C1CC(NS(=O)(=O)c2ccc([N+](=O)[O-])cc2)CN1c1cccc(F)c1 (stereo unspecified) | 34% | 4.11 µM [rising, full curve, poor fit] | –
Cc1cccc(N2CCN(CC(O)COc3ccccc3Cl)CC2)c1 (stereo unspecified) | -33% | 18.4 µM [falling, single point] | 0.0058 µM [falling, full curve, poor fit]
